These are yes or no findings as the source states them, for the method shown. Binding seen in cells or lysates may run through a third protein. Here binding means that the protein was enriched with, or labelled near, the bait; the list need not be complete. Values belong to the molecule of their own block, whether it stands above or below them.
Biological target: Filamin A (human (endogenous in TCam-2)) (UniProt P21333)
Assay: affinity purification with mass spectrometry; immunoprecipitation from TCam-2 total protein lysate (RIPA buffer with protease inhibitor mix) with FLNA-specific antibodies (serum) on Protein G Sepharose beads, 4 °C for 90 min; beads washed, digested on the bead with trypsin, LC-MS/MS; performed three times

Protein sequences, listed by entry. Tags and fused reporters are not part of them.
UniProt P21333: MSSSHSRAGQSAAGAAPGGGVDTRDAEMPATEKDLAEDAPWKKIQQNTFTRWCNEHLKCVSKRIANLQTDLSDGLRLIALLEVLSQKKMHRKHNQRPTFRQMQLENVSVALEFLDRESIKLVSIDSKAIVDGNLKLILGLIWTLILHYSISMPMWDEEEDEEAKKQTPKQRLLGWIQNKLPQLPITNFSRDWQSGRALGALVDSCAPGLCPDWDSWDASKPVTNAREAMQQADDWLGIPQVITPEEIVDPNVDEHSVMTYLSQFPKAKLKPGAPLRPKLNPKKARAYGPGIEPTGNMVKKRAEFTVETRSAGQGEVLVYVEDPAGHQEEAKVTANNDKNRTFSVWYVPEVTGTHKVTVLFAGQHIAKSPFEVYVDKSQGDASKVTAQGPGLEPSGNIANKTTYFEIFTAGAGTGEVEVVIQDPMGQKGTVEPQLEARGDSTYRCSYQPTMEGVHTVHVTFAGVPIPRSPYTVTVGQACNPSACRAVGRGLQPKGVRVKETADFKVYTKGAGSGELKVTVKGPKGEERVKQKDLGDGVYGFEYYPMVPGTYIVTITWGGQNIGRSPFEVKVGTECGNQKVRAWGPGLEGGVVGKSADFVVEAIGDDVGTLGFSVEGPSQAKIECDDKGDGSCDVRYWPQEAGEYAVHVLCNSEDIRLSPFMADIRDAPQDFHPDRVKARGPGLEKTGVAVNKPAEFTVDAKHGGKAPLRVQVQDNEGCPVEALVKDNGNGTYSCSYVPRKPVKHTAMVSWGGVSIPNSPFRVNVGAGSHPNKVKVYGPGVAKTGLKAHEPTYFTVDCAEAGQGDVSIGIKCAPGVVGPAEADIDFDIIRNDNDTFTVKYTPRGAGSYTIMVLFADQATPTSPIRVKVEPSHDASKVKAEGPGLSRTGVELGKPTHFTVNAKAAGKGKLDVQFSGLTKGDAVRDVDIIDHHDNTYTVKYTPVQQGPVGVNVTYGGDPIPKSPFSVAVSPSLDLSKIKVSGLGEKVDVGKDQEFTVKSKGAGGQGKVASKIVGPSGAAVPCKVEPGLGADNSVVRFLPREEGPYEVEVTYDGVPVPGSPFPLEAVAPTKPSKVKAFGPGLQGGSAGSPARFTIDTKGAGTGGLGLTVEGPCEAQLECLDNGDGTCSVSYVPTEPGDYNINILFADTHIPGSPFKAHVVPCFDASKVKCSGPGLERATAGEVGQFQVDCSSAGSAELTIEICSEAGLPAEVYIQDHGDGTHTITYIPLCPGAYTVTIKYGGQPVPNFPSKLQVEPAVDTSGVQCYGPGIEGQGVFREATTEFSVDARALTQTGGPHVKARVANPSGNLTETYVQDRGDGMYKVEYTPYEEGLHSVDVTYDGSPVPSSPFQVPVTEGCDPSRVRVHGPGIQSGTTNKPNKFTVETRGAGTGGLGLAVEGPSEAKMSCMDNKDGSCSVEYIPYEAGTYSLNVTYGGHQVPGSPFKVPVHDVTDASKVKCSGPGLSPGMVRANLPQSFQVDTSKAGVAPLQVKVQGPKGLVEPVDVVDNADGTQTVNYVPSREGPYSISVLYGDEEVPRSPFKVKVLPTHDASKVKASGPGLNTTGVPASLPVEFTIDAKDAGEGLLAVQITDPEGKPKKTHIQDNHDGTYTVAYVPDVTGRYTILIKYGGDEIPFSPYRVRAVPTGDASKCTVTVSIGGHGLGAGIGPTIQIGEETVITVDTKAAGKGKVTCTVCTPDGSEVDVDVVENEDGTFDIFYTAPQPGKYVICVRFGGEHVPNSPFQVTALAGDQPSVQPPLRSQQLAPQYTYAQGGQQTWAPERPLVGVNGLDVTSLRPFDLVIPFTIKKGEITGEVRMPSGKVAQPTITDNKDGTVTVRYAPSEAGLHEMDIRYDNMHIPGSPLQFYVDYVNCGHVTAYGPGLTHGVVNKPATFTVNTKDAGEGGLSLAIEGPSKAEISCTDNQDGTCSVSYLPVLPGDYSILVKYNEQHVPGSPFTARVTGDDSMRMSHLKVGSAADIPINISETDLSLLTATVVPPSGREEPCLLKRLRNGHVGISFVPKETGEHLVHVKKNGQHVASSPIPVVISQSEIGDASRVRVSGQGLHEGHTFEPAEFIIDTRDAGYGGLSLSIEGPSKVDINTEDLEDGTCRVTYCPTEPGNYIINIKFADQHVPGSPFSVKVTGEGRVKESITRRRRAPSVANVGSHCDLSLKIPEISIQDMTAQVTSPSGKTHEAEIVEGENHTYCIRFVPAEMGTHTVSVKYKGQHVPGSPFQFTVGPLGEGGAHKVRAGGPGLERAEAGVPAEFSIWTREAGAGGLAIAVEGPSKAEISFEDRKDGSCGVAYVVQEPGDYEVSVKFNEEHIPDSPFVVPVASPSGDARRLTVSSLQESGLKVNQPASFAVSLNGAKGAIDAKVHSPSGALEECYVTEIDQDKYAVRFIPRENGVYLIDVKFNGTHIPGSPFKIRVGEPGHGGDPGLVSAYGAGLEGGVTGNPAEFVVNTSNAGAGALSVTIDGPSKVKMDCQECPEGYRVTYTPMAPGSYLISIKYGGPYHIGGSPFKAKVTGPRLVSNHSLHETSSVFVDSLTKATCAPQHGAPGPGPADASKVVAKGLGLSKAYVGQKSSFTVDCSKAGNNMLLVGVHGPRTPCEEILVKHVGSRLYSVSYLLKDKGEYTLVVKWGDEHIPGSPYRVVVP
UniProt P23528: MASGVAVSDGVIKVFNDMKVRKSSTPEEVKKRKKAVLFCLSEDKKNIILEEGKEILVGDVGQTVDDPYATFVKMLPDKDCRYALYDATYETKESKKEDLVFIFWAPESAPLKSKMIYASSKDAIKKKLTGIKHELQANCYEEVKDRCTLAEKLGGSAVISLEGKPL
UniProt P15311: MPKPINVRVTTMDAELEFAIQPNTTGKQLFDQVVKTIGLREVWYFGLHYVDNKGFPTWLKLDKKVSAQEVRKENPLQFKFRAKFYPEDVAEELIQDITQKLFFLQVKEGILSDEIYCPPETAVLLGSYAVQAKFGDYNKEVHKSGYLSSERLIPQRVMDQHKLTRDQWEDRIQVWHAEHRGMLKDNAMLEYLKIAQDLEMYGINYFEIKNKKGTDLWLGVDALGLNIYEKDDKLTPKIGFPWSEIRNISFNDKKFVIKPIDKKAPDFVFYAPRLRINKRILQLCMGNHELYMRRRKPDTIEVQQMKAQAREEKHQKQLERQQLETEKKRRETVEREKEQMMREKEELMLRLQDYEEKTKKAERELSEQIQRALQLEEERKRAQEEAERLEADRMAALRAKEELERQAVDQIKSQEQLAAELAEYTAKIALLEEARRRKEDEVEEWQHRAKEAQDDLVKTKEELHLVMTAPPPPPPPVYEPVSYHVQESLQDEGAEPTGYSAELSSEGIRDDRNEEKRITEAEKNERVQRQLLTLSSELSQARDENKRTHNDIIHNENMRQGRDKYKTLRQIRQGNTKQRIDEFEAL
UniProt Q9Y265: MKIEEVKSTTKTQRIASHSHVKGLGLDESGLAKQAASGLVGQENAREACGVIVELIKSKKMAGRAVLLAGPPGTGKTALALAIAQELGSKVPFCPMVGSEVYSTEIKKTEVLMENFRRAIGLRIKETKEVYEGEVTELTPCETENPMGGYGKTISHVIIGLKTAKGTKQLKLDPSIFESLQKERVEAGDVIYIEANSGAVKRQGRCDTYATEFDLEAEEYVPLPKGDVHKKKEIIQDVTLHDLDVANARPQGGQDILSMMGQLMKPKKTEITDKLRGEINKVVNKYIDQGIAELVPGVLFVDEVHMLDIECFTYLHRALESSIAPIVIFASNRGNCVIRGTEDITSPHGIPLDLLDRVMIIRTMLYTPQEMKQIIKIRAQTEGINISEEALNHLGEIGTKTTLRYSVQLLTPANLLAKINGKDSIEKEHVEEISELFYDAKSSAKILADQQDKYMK

Molecule: Cofilin-1 (from UniProt P23528 1-166)
binding: binds

Molecule: Ezrin (from UniProt P15311 1-586)
binding: binds

B1: Zyxin (protein, UniProt Q15942 1-572)
chain: MAAPRPSPAISVSVSAPAFYAPQKKFGPVVAPKPKVNPFRPGDSEPPPAPGAQRAQMGRVGEIPPPPPEDFPLPPPPLAGDGDDAEGALGGAFPPPPPPIEESFPPAPLEEEIFPSPPPPPEEEGGPEAPIPPPPQPREKVSSIDLEIDSLSSLLDDMTKNDPFKARVSSGYVPPPVATPFSSKSSTKPAAGGTAPLPPWKSPSSSQPLPQVPAPAQSQTQFHVQPQPQPKPQVQLHVQSQTQPVSLANTQPRGPPASSPAPAPKFSPVTPKFTPVASKFSPGAPGGSGSQPNQKLGHPEALSAGTGSPQPPSFTYAQQREKPRVQEKQHPVPPPAQNQNQVRSPGAPGPLTLKEVEELEQLTQQLMQDMEHPQRQNVAVNELCGRCHQPLARAQPAVRALGQLFHIACFTCHQCAQQLQGQQFYSLEGAPYCEGCYTDTLEKCNTCGEPITDRMLRATGKAYHPHCFTCVVCARPLEGTSFIVDQANRPHCVPDYHKQYAPRCSVCSEPIMPEPGRDETVRVVALDKNFHMKCYKCEDCGKPLSIEADDNGCFPLDGHVLCRKCHTARAQT
binding: binds

B2: Ladinin-1 (protein, UniProt O00515 1-517)
chain: MAVSRKDWSALSSLARQRTLEDEEEQERERRRRHRNLSSTTDDEAPRLSQNGDRQASASERLPSVEEAEVPKPLPPASKDEDEDIQSILRTRQERRQRRQVVEAAQAPIQERLEAEEGRNSLSPVQATQKPLVSKKELEIPPRRRLSREQRGPWALEEESLVGREPEERKKGVPEKSPVLEKSSMPKKTAPEKSLVSDKTSISEKVLASEKTSLSEKIAVSEKRNSSEKKSVLEKTSVSEKSLAPGMALGSGRRLVSEKASIFEKALASEKSPTADAKPAPKRATASEQPLAQEPPASGGSPATTKEQRGRALPGKNLPSLAKQGASDPPTVASRLPPVTLQVKIPSKEEEADMSSPTQRTYSSSLKRSSPRTISFRMKPKKENSETTLTRSASMKLPDNTVKLGEKLERYHTAIRRSESVKSRGLPCTELFVAPVGVASKRHLFEKELAGQSRAEPASSRKENLRLSGVVTSRLNLWISRTQESGDQDPQEAQKASSATERTQWGQKSDSSLDAEV
binding: binds

B3: DAZ-associated protein 1 (protein, UniProt Q96EP5 1-407)
chain: MNNSGADEIGKLFVGGLDWSTTQETLRSYFSQYGEVVDCVIMKDKTTNQSRGFGFVKFKDPNCVGTVLASRPHTLDGRNIDPKPCTPRGMQPERTRPKEGWQKGPRSDNSKSNKIFVGGIPHNCGETELREYFKKFGVVTEVVMIYDAEKQRPRGFGFITFEDEQSVDQAVNMHFHDIMGKKVEVKRAEPRDSKSQAPGQPGASQWGSRVVPNAANGWAGQPPPTWQQGYGPQGMWVPAGQAIGGYGPPPAGRGAPPPPPPFTSYIVSTPPGGFPPPQGFPQGYGAPPQFSFGYGPPPPPPDQFAPPGVPPPPATPGAAPLAFPPPPSQAAPDMSKPPTAQPDFPYGQYAGYGQDLSGFGQGFSDPSQQPPSYGGPSVPGSGGPPAGGSGFGRGQNHNVQGFHPYRR
binding: binds

Continued, values first:

binding: binds
Molecule: RuvB-like 1 (from UniProt Q9Y265 1-456)

binding: binds
Molecule: Epiplakin (from UniProt P58107 1-5088)

Source: article PMC7761120
